Results taken from paper doi:10.1101/2024.09.19.613943.
Results are given in words; binding and its absence hold for the method and conditions named. Binding seen in cells or lysates may run through a third protein. Some entries that bind do so weakly or less than the wild type. For part of these data: Sequences can lack the tags named with a protein.

By UniProt entry, the sequences of proteins in these tests, tags left out.
UniProt Q04744: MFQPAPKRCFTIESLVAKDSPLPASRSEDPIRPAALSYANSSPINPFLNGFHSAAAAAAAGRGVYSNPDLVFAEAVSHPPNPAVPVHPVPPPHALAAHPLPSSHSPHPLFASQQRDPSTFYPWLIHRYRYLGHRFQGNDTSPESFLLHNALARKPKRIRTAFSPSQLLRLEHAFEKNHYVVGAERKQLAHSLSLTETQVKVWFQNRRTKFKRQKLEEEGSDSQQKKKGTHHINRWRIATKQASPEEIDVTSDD
UniProt Q8K4B0: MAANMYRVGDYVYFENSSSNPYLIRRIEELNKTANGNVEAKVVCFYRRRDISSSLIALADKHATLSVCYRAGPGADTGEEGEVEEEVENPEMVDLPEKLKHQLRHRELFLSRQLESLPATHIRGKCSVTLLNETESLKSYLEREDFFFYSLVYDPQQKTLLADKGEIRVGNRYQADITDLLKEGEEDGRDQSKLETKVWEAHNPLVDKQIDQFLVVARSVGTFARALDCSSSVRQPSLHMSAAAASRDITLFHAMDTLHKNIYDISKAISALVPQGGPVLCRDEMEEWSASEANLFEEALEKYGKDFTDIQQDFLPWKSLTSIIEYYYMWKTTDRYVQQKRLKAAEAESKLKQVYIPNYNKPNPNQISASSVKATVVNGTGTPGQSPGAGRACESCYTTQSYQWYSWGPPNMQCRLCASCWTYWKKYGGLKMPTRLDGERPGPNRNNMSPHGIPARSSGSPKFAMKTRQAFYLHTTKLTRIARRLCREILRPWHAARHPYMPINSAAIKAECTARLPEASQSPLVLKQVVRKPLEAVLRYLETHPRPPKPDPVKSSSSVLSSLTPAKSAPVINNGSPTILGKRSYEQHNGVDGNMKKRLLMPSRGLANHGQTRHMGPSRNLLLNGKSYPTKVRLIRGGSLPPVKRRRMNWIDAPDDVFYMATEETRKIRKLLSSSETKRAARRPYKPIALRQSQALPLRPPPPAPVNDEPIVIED
UniProt P70288: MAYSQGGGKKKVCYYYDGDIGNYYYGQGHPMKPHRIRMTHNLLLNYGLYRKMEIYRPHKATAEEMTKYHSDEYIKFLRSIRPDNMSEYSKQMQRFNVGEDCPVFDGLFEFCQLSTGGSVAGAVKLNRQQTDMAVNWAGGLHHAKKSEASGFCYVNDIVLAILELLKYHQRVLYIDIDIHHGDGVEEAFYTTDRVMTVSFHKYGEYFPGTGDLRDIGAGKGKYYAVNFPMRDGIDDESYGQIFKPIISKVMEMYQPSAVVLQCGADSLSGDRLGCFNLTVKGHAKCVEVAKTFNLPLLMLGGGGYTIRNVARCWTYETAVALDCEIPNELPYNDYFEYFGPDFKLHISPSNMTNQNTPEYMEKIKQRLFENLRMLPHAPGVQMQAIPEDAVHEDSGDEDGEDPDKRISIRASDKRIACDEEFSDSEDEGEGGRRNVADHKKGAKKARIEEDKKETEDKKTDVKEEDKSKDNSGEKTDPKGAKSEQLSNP

T1: LIM domain binding protein 1 (Ldb1), endogenous in E12.5 cortex (mouse (endogenous in E12.5 cortex)) (UniProt P70662)
T1 sequence: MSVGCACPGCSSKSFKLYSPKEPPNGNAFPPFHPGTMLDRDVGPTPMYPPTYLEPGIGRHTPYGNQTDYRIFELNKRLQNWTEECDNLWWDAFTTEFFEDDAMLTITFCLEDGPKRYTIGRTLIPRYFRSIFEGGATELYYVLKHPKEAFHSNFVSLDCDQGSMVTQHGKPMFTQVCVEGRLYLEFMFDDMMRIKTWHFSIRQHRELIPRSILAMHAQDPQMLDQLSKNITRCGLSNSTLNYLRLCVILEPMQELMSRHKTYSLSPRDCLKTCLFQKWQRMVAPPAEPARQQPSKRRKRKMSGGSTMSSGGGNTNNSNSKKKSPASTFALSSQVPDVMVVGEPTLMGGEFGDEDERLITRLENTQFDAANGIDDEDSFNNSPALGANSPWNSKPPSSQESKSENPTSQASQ


Key:
[1] = biological target: T1, LIM domain binding protein 1 (Ldb1), endogenous in E12.5 cortex (mouse (endogenous in E12.5 cortex)); test: co-IP
[2] = biological target: Flag-Emx2 (pCS2-Flag-Emx2) (UniProt Q04744); test: co-IP

Molecule	binding [1]	binding [2]
MTA1 (from UniProt Q8K4B0 1-715)	binds	
HDAC2 (from UniProt P70288 1-488)	binds	
HA-Flag-Ldb1 (protein, UniProt P70662 1-411) MSVGCACPGCSSKSFKLYSPKEPPNGNAFPPFHPGTMLDRDVGPTPMYPPTYLEPGIGRHTPYGNQTDYRIFELNKRLQNWTEECDNLWWDAFTTEFFEDDAMLTITFCLEDGPKRYTIGRTLIPRYFRSIFEGGATELYYVLKHPKEAFHSNFVSLDCDQGSMVTQHGKPMFTQVCVEGRLYLEFMFDDMMRIKTWHFSIRQHRELIPRSILAMHAQDPQMLDQLSKNITRCGLSNSTLNYLRLCVILEPMQELMSRHKTYSLSPRDCLKTCLFQKWQRMVAPPAEPARQQPSKRRKRKMSGGSTMSSGGGNTNNSNSKKKSPASTFALSSQVPDVMVVGEPTLMGGEFGDEDERLITRLENTQFDAANGIDDEDSFNNSPALGANSPWNSKPPSSQESKSENPTSQASQ		binds
